Measurements from PubChem BioAssay AID192 (DTP/NCI, 2004).
The list does not hold the whole screen: it gathers tests that were run many times, whatever their T/C, doses with no T/C, and many T/C values between a quarter and a half above the control. Other doses and runs of a compound stand elsewhere. T/C is the treated group as % of the vehicle group. Some entries give survivors of the animals treated and no T/C: the source files T/C as zero there, which appears to mark a toxic dose or a test without result, not a measured value. Some survivor counts are full or nearly so, which does not show that the dose was tolerated: survival well below the control is almost never listed, so the zero probably covers shortened survival too. Counts of survivors are from the toxicity check (mostly the fifth day) where no day follows; animals may have died later. Schedules are NCI's codes, read here as Q, the interval in days (D) or hours (H), X, the number of doses. Counts like (3×) count equal records among those shown. Some entries hold several experiments; the values are given in rising order. Where survival is the endpoint, the PubChem record calls one and a half times the control and up active, and a quarter to a half above the control has no call in these data; cut-offs in other NCI protocols can differ. Some T/C values carry the count of animals alive at the toxicity check (mostly the fifth day); without a count, all were alive then.

Tested on: BDF1 mice, B16 melanoma ip, median survival T/C
Assay: NCI In Vivo Anticancer Drug Screen. Data for tumor model B16 Melanoma (intraperitoneal) in B6D2F1 (BDF1) mice
Details: T/C endpoint: median survival time, higher T/C = longer survival
Protocol: The antitumor activity of compounds was measured in mice bearing transplantable tumors. Survival or tumor size were measured and the results are expressed as the measurement made in the treated group (T) divided by the measurement made in the vehicle treated control group (C). The tumor model used in this assay is B16 Melanoma (intraperitoneal) in B6D2F1 (BDF1) mice

[1] = dose: 400.0 mg/kg/injection, schedule: Q01DX009 (ip), vehicle: Klucel (hydroxypropylcellulose) (HPC)
[2] = dose: 50.0 mg/kg/injection, schedule: Q01DX009 (ip), vehicle: Klucel (hydroxypropylcellulose) (HPC)

CCC1=C(C[C@H]2NCCc3cc(OC)c(OC)cc32)C[C@H]2c3cc(OC)c(OC)cc3CCN2C1 was tested, and the T/C (dose: 2.0 mg/kg/injection, schedule: Q01DX005 (ip), vehicle: saline) was 125 % of control [9 of 10 alive], the T/C (dose: 8.0 mg/kg/injection, schedule: Q01DX005 (ip), vehicle: saline) was 140 % of control and the T/C (dose: 8.0 mg/kg/injection, schedule: Q01DX009 (ip), vehicle: Klucel (hydroxypropylcellulose) (HPC)) was 127 % of control. For the same compound, the T/C (dose: 8.0 mg/kg/injection, schedule: Q01DX009 (ip), vehicle: saline, evaluated on day 45) was 125 % of control [9 of 10 alive], the T/C (dose: 8.0 mg/kg/injection, schedule: Q01DX009 (ip), vehicle: saline, evaluated on day 60) was 136 % of control and the T/C (dose: 16.0 mg/kg/injection, schedule: Q01DX005 (ip), vehicle: saline) was 146 % of control. The T/C (dose: 16.0 mg/kg/injection, schedule: Q01DX009 (ip), vehicle: Klucel (hydroxypropylcellulose) (HPC)) was 141 % of control, the survivor count (dose: 16.0 mg/kg/injection, schedule: Q01DX009 (ip), vehicle: saline) was 10 of 10 (2×) and the survivor count (dose: 32.0 mg/kg/injection, schedule: Q01DX005 (ip), vehicle: saline) was 4 of 10. The survivor count (dose: 32.0 mg/kg/injection, schedule: Q01DX009 (ip), vehicle: Klucel (hydroxypropylcellulose) (HPC)) was 2 of 10 and the survivor count (dose: 32.0 mg/kg/injection, schedule: Q01DX009 (ip), vehicle: saline) was 0 of 10 and 2 of 10.

In the case of O=C(Nc1ccc(F)cc1)Nc1cccc2ccccc12, the survivor count [1] is reported as 6 of 6.

COc1ccc2cc1Oc1ccc(cc1)C[C@H]1c3cc(c(OC)cc3CCN1C)Oc1c(O)c(OC)cc3c1[C@H](C2)N(C)CC3 was tested, and the survivor count (dose: 100.0 mg/kg/injection, schedule: Q01DX009 (ip), vehicle: acid diluted with saline) was 8 of 10, the survivor count (dose: 200.0 mg/kg/injection, schedule: Q01DX009 (ip), vehicle: acid diluted with saline) was 1 of 10 and the survivor count (dose: 400.0 mg/kg/injection, schedule: Q01DX009 (ip), vehicle: acid diluted with saline) was 0 of 10.

COc1ccc(NC(=O)Nc2ccccc2F)cc1 was tested, and the survivor count [1] was 6 of 6.

With NNC(=O)c1ccccn1 the survivor count (dose: 100.0 mg/kg/injection, schedule: Q01DX009 (ip), vehicle: water) was 6 of 6, the survivor count (dose: 200.0 mg/kg/injection, schedule: Q01DX009 (ip), vehicle: water) was 0 of 6 and the survivor count (dose: 300.0 mg/kg/injection, schedule: Q01DX009 (ip), vehicle: water) was 0 of 6.

CC1NC(=O)COC1c1ccccc1 (stereo not drawn) was tested, and the survivor count (dose: 200.0 mg/kg/injection, schedule: Q01DX009 (ip), vehicle: Klucel (hydroxypropylcellulose) (HPC)) was 8 of 10.

For COC1=C(Br)[C@H](O)[C@](O)(CC#N)C=C1Br, the survivor count [2] was 10 of 10, the survivor count (dose: 100.0 mg/kg/injection, schedule: Q01DX009 (ip), vehicle: Klucel (hydroxypropylcellulose) (HPC)) was 5 of 10 and the survivor count (dose: 140.0 mg/kg/injection, schedule: Q01DX009 (ip), vehicle: Klucel (hydroxypropylcellulose) (HPC)) was 10 of 10.

With Ic1ncnc2c1ncn2C1CCCO1 (stereo not drawn) the T/C (dose: 12.5 mg/kg/injection, schedule: Q01DX009 (ip), vehicle: Klucel (hydroxypropylcellulose) (HPC)) was 126 % of control, the T/C (dose: 25.0 mg/kg/injection, schedule: Q01DX009 (ip), vehicle: Klucel (hydroxypropylcellulose) (HPC)) was 126 % of control and the T/C [2] was 129 % of control. For the same compound, the survivor count [1] was 6 of 10.

With Nc1ccc(OCc2ccccc2)cc1 the survivor count (dose: 6.25 mg/kg/injection, schedule: Q01DX009 (ip), vehicle: saline with Tween-80) was 10 of 10 and the survivor count (dose: 12.5 mg/kg/injection, schedule: Q01DX009 (ip), vehicle: saline with Tween-80) was 10 of 10.

Cc1c(N)nc(C(CC(N)=O)NCC(N)C(N)=O)nc1C(=O)NC(C(=O)NC(C)C(O)C(C)C(=O)NC(C(=O)NCCc1nc(-c2nc(C(=O)NCCCNCCCc3ccccn3)cs2)cs1)C(C)O)C(OC1OC(CO)C(O)C(O)C1OC1OC(CO)C(O)C(OC(N)=O)C1O)c1cnc[nH]1 (stereo not drawn) was tested, and the survivor count (dose: 48.0 mg/kg/injection, schedule: Q01DX009 (ip), vehicle: water) was 10 of 10.

CCC(C)Nc1ccc(N)cc1 (stereo not drawn) was tested, and the survivor count (dose: 1.5 mg/kg/injection, schedule: Q01DX009 (ip), vehicle: Klucel (hydroxypropylcellulose) (HPC)) was 3 of 10 and the survivor count (dose: 3.0 mg/kg/injection, schedule: Q01DX009 (ip), vehicle: Klucel (hydroxypropylcellulose) (HPC)) was 2 of 10.

In the case of COc1ccc(N=C=Nc2ccc(OC)cc2)cc1, the survivor count [2] is reported as 9 of 10.
